# Results published in the supplement of paper PMC4604168 (melanoma cell lines).
# The other results are listed elsewhere or left out. Repeats are few or missing, and single values can be far off.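 Cells were imaged in 1,536-well plates, and nuclei stained with an antibody against cleaved PARP were counted against all DNA-stained nuclei to give the apoptosis fraction. Screening doses were chosen to leave most cells alive, and resting and induced cleaved-PARP levels differ strongly between cell lines.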
# Legend:
# Experiment in all cases: cleaved PARP positive nuclei fraction relative to DMSO control; melanoma cells; higher = more apoptosis
# Conditions in all cases: library dose: low library concentration; 72 h
# 501Mel = test system: 501Mel
# A101D = test system: A101D
# A2058 = test system: A2058
# A375 = test system: A375
# C32 = test system: C32
# CBRC013 = test system: CBRC013 (line from a melanoma biopsy)
# CBRC014 = test system: CBRC014 (line from a melanoma biopsy)
# CBRC016 = test system: CBRC016 (line from a melanoma biopsy)
# CBRC017 = test system: CBRC017 (line from a melanoma biopsy)
Compound,cleaved PARP positive nuclei fraction (501Mel),cleaved PARP positive nuclei fraction (A101D),cleaved PARP positive nuclei fraction (A2058),cleaved PARP positive nuclei fraction (A375),cleaved PARP positive nuclei fraction (C32),cleaved PARP positive nuclei fraction (CBRC013),cleaved PARP positive nuclei fraction (CBRC014),cleaved PARP positive nuclei fraction (CBRC016),cleaved PARP positive nuclei fraction (CBRC017)
"CO[C@@H]1[C@H](N(C)C(=O)c2ccccc2)C[C@H]2O[C@]1(C)n1c3ccccc3c3c4c(c5c6ccccc6n2c5c31)C(=O)NC4 [Midostaurin] + C/C(O)=C(\C#N)C(=O)Nc1cc(Br)ccc1Br [LFM-A13] (first compound 0.08 µM, partner dose 2 µM)",134%,331%,69.2%,75.7%,157%,35.6%,104%,173%,201%
"Cc1cc(SCc2sc(-c3ccc(C(F)(F)F)c(F)c3)nc2C)ccc1OCC(=O)O + Cc1cc([N+](=O)[O-])ccc1NS(=O)(=O)c1cc(Cl)ccc1Cl [FH535] (first compound 2 µM, partner dose 1 µM)",74.4%,93.1%,44.4%,53.2%,35%,65.7%,104%,1330%,121%
"C=CCn1c(=O)c2cnc(Nc3ccc(N4CCN(C)CC4)cc3)nc2n1-c1cccc(C(C)(C)O)n1 + O=C(Oc1ccc([N+](=O)[O-])cc1)N1CCC(C(O)(c2ccc3c(c2)OCO3)c2ccc3c(c2)OCO3)CC1 [JZL184] (first compound 0.02 µM, partner dose 1 µM)",95.5%,157%,60.3%,131%,160%,113%,134%,62.4%,101%
"OCCn1cc(-c2cnc3nnn(Cc4ccc5ncccc5c4)c3n2)cn1 + O=C(Oc1ccc([N+](=O)[O-])cc1)N1CCC(C(O)(c2ccc3c(c2)OCO3)c2ccc3c(c2)OCO3)CC1 [JZL184] (first compound 1 µM, partner dose 1 µM)",73%,109%,137%,83.2%,43.8%,151%,188%,66.7%,61.4%
"COc1ccc(COc2ccc(Cc3cnc(N)nc3N)cc2OC)cc1 + C/C(O)=C(\C#N)C(=O)Nc1cc(Br)ccc1Br [LFM-A13] (first compound 1 µM, partner dose 2 µM)",64.5%,109%,72.5%,164%,62.6%,182%,88%,34.9%,80.5%
"COc1ccc2c(c1)CCC1C2CCC2(C)C(NCCCCCCN3C(=O)C=CC3=O)CCC12 (stereo unspecified) + O=C(Oc1ccc([N+](=O)[O-])cc1)N1CCC(C(O)(c2ccc3c(c2)OCO3)c2ccc3c(c2)OCO3)CC1 [JZL184] (first compound 0.4 µM, partner dose 1 µM)",122%,89.5%,37.9%,190%,72%,96.9%,112%,156%,191%
"C/C(O)=C(\C#N)C(=O)Nc1cc(Br)ccc1Br + Cn1cc(/C=C2\C(=O)Nc3cccnc32)c2ccccc21 [GW441756] (first compound 2 µM, partner dose 0.4 µM)",81.8%,120%,48.1%,104%,137%,104%,90.3%,21.9%,90.5%
"C/C(O)=C(\C#N)C(=O)Nc1cc(Br)ccc1Br + c1cc(-c2cnn3cc(-c4ccc(OCCN5CCCCC5)cc4)cnc23)ccn1 [Dorsomorphin] (first compound 2 µM, partner dose 0.4 µM)",87.9%,125%,74.7%,44.6%,230%,40.1%,109%,108%,140%
"Cc1cc(SCc2sc(-c3ccc(C(F)(F)F)c(F)c3)nc2C)ccc1OCC(=O)O + c1cc(-c2cnn3cc(-c4ccc(OCCN5CCCCC5)cc4)cnc23)ccn1 [Dorsomorphin] (first compound 2 µM, partner dose 0.4 µM)",98.9%,114%,114%,168%,201%,103%,104%,109%,86.4%
"Cc1cc(SCc2sc(-c3ccc(C(F)(F)F)c(F)c3)nc2C)ccc1OCC(=O)O + CCCCCCCCCCCC1=C(O)C(=O)C=C(O)C1=O [Embelin] (first compound 2 µM, partner dose 1.2 µM)",83.8%,182%,26.3%,96.8%,89%,55.5%,80.8%,149%,82%
"Cc1cc(SCc2sc(-c3ccc(C(F)(F)F)c(F)c3)nc2C)ccc1OCC(=O)O + O=C(O)C(=O)Nc1sc2c(c1C(=O)O)CCNC2 [TCS401] (first compound 2 µM, partner dose 1.66667 µM)",34.5%,118%,77.6%,83.3%,69.5%,23.7%,62.6%,73.5%,73.1%
"O=C(Nc1cccc(Cl)c1)Nc1ncc(CCNc2ncnc3ccsc23)s1 + C/C(O)=C(\C#N)C(=O)Nc1cc(Br)ccc1Br [LFM-A13] (first compound 0.0008 µM, partner dose 2 µM)",49%,44.4%,128%,104%,43%,205%,114%,132%,107%
"Cc1cc(SCc2sc(-c3ccc(C(F)(F)F)c(F)c3)nc2C)ccc1OCC(=O)O + O=C(Oc1ccc([N+](=O)[O-])cc1)N1CCC(C(O)(c2ccc3c(c2)OCO3)c2ccc3c(c2)OCO3)CC1 [JZL184] (first compound 2 µM, partner dose 1 µM)",96.8%,57.1%,107%,55%,141%,84.3%,95.4%,191%,97.2%
"Cc1cc(SCc2sc(-c3ccc(C(F)(F)F)c(F)c3)nc2C)ccc1OCC(=O)O + Oc1cc(-c2nc(-c3ccccc3)[nH]c2-c2ccncc2)ccc1Cl [L779450] (first compound 2 µM, partner dose 0.2 µM)",108%,23.6%,52.5%,315%,144%,263%,95.6%,125%,79.9%
"C[As](C)SC[C@H](NC(=O)CC[C@H](N)C(=O)O)C(=O)NCC(=O)O [Darinaparsin] + O=C(Nc1ccccc1)c1cc([N+](=O)[O-])ccc1Cl [GW9662] (first compound 0.4 µM, partner dose 2 µM)",164%,115%,86.9%,163%,74.4%,64.1%,94.1%,148%,72%
"C[As](C)SC[C@H](NC(=O)CC[C@H](N)C(=O)O)C(=O)NCC(=O)O [Darinaparsin] + N#Cc1c(O)c2c(-c3ccc(-c4ccccc4O)cc3)csc2[nH]c1=O [A769662] (first compound 0.4 µM, partner dose 2 µM)",77.6%,157%,68%,49.9%,99.8%,74.1%,91.7%,82.3%,78.1%
"CCc1ccc(CCOc2ccc(CC3SC(=O)NC3=O)cc2)nc1 (stereo unspecified) [pioglitazone] + C/C(O)=C(\C#N)C(=O)Nc1cc(Br)ccc1Br [LFM-A13] (first compound 2 µM, partner dose 2 µM)",138%,163%,52.3%,97.8%,169%,228%,196%,90.3%,80%
"c1cc(-c2cnn3cc(-c4ccc(OCCN5CCCCC5)cc4)cnc23)ccn1 [Dorsomorphin] + O=C(Oc1ccc([N+](=O)[O-])cc1)N1CCC(C(O)(c2ccc3c(c2)OCO3)c2ccc3c(c2)OCO3)CC1 [JZL184] (first compound 0.4 µM, partner dose 1 µM)",38.6%,83.9%,95.7%,24.8%,68.9%,358%,84.4%,62.4%,57.6%
"COCC[n+]1c2c(n(Cc3cnccn3)c1C)C(=O)c1ccccc1C2=O + C/C(O)=C(\C#N)C(=O)Nc1cc(Br)ccc1Br [LFM-A13] (first compound 0.0004 µM, partner dose 2 µM)",56.9%,106%,73.7%,560%,197%,71.5%,101%,97.8%,77.7%
"O=C(Nc1ccccc1)c1cc([N+](=O)[O-])ccc1Cl + O=C(Oc1ccc([N+](=O)[O-])cc1)N1CCC(C(O)(c2ccc3c(c2)OCO3)c2ccc3c(c2)OCO3)CC1 [JZL184] (first compound 2 µM, partner dose 1 µM)",54.5%,36.1%,122%,122%,93.7%,123%,87.4%,56.2%,83.3%
"N#Cc1c(O)c2c(-c3ccc(-c4ccccc4O)cc3)csc2[nH]c1=O + Cc1cc(SCc2sc(-c3ccc(C(F)(F)F)c(F)c3)nc2C)ccc1OCC(=O)O [GW0742] (first compound 2 µM, partner dose 2 µM)",110%,125%,214%,110%,134%,118%,91.4%,62.5%,128%
"COc1cc2c(Oc3ccc4[nH]c(C)cc4c3F)ncnc2cc1OCCCN1CCCC1 [cediranib] + Cc1cc(SCc2sc(-c3ccc(C(F)(F)F)c(F)c3)nc2C)ccc1OCC(=O)O [GW0742] (first compound 0.4 µM, partner dose 2 µM)",120%,45.7%,26.4%,119%,648%,89.3%,94.5%,67.8%,71.7%
"C/C(O)=C(\C#N)C(=O)Nc1cc(Br)ccc1Br + O=C(Oc1ccc([N+](=O)[O-])cc1)N1CCC(C(O)(c2ccc3c(c2)OCO3)c2ccc3c(c2)OCO3)CC1 [JZL184] (first compound 2 µM, partner dose 1 µM)",67.2%,56.5%,40.3%,90.1%,45.7%,41.9%,97.8%,112%,89.6%
"C[As](C)SC[C@H](NC(=O)CC[C@H](N)C(=O)O)C(=O)NCC(=O)O [Darinaparsin] + O=S(=O)(c1ccccc1)N(CC(F)(F)F)c1ccc(C(O)(C(F)(F)F)C(F)(F)F)cc1 [T0901317] (first compound 0.4 µM, partner dose 1.4 µM)",226%,62.2%,59.3%,247%,150%,55.2%,151%,61.7%,90.4%

# A second format for some results above:
Compound	cleaved PARP positive nuclei fraction (501Mel)	cleaved PARP positive nuclei fraction (A101D)	cleaved PARP positive nuclei fraction (A2058)	cleaved PARP positive nuclei fraction (A375)	cleaved PARP positive nuclei fraction (C32)	cleaved PARP positive nuclei fraction (CBRC013)	cleaved PARP positive nuclei fraction (CBRC014)	cleaved PARP positive nuclei fraction (CBRC016)	cleaved PARP positive nuclei fraction (CBRC017)
CO[C@@H]1[C@H](N(C)C(=O)c2ccccc2)C[C@H]2O[C@]1(C)n1c3ccccc3c3c4c(c5c6ccccc6n2c5c31)C(=O)NC4 [Midostaurin] + C/C(O)=C(\C#N)C(=O)Nc1cc(Br)ccc1Br [LFM-A13] (first compound 0.08 µM, partner dose 2 µM)	134%	331%	69.2%	75.7%	157%	35.6%	104%	173%	201%
Cc1cc(SCc2sc(-c3ccc(C(F)(F)F)c(F)c3)nc2C)ccc1OCC(=O)O + Cc1cc([N+](=O)[O-])ccc1NS(=O)(=O)c1cc(Cl)ccc1Cl [FH535] (first compound 2 µM, partner dose 1 µM)	74.4%	93.1%	44.4%	53.2%	35%	65.7%	104%	1330%	121%
C=CCn1c(=O)c2cnc(Nc3ccc(N4CCN(C)CC4)cc3)nc2n1-c1cccc(C(C)(C)O)n1 + O=C(Oc1ccc([N+](=O)[O-])cc1)N1CCC(C(O)(c2ccc3c(c2)OCO3)c2ccc3c(c2)OCO3)CC1 [JZL184] (first compound 0.02 µM, partner dose 1 µM)	95.5%	157%	60.3%	131%	160%	113%	134%	62.4%	101%
C/C(O)=C(\C#N)C(=O)Nc1cc(Br)ccc1Br + Cn1cc(/C=C2\C(=O)Nc3cccnc32)c2ccccc21 [GW441756] (first compound 2 µM, partner dose 0.4 µM)	81.8%	120%	48.1%	104%	137%	104%	90.3%	21.9%	90.5%
COCC[n+]1c2c(n(Cc3cnccn3)c1C)C(=O)c1ccccc1C2=O + C/C(O)=C(\C#N)C(=O)Nc1cc(Br)ccc1Br [LFM-A13] (first compound 0.0004 µM, partner dose 2 µM)	56.9%	106%	73.7%	560%	197%	71.5%	101%	97.8%	77.7%
COc1cc2c(Oc3ccc4[nH]c(C)cc4c3F)ncnc2cc1OCCCN1CCCC1 [cediranib] + Cc1cc(SCc2sc(-c3ccc(C(F)(F)F)c(F)c3)nc2C)ccc1OCC(=O)O [GW0742] (first compound 0.4 µM, partner dose 2 µM)	120%	45.7%	26.4%	119%	648%	89.3%	94.5%	67.8%	71.7%
